These are yes or no findings as the source states them, for the method shown. Binding seen in cells or lysates may run through a third protein. For some of these results: Binding can be weak; no strength is given. Where a sequence is shown, tags or fusion partners need not be part of it.
T1: HA-ASCT2, wild type (UniProt Q15758)
T1 sequence: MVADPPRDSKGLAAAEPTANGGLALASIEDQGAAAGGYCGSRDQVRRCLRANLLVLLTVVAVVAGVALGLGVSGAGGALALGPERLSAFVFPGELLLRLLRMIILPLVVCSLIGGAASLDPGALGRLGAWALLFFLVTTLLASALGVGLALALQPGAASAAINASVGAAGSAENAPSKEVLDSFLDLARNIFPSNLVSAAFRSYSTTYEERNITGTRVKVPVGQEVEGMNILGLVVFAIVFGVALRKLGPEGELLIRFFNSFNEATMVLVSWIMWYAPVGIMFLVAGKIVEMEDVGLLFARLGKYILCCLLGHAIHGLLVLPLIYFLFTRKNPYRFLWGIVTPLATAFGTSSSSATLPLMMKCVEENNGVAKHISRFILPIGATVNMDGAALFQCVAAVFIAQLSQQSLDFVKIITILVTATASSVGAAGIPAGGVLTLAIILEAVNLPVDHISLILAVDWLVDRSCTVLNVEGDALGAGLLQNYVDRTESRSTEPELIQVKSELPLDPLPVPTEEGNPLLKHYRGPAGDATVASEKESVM


Assays:
HA-ASCT2, wild type = target: T1, HA-ASCT2, wild type; experiment: co-IP; HEK293 cells transfected with plasmids; IP lysis buffer (50 mM Tris-HCl pH 8.0, 120 mM NaCl, 0.5% NP40, 1 mM EDTA); HA antibody overnight at 4 °C; immunoblot
FLAG-SPOPΔBTB = experiment: co-IP; HEK293 cells transfected with plasmids; IP lysis buffer (50 mM Tris-HCl pH 8.0, 120 mM NaCl, 0.5% NP40, 1 mM EDTA); FLAG-agarose beads overnight at 4 °C; immunoblot
FLAG-SPOPΔMATH = experiment: as above

binding (HA-ASCT2, wild type) | binding (FLAG-SPOPΔBTB) | binding (FLAG-SPOPΔMATH) | Molecule
binds |  |  | FLAG-SPOPΔBTB (domain or fragment)
no binding |  |  | FLAG-SPOPΔMATH (domain or fragment)
 | binds | no binding | HA-ASCT2, wild type (protein, UniProt Q15758 1-541) MVADPPRDSKGLAAAEPTANGGLALASIEDQGAAAGGYCGSRDQVRRCLRANLLVLLTVVAVVAGVALGLGVSGAGGALALGPERLSAFVFPGELLLRLLRMIILPLVVCSLIGGAASLDPGALGRLGAWALLFFLVTTLLASALGVGLALALQPGAASAAINASVGAAGSAENAPSKEVLDSFLDLARNIFPSNLVSAAFRSYSTTYEERNITGTRVKVPVGQEVEGMNILGLVVFAIVFGVALRKLGPEGELLIRFFNSFNEATMVLVSWIMWYAPVGIMFLVAGKIVEMEDVGLLFARLGKYILCCLLGHAIHGLLVLPLIYFLFTRKNPYRFLWGIVTPLATAFGTSSSSATLPLMMKCVEENNGVAKHISRFILPIGATVNMDGAALFQCVAAVFIAQLSQQSLDFVKIITILVTATASSVGAAGIPAGGVLTLAIILEAVNLPVDHISLILAVDWLVDRSCTVLNVEGDALGAGLLQNYVDRTESRSTEPELIQVKSELPLDPLPVPTEEGNPLLKHYRGPAGDATVASEKESVM
